# Reference: paper PMC12040169 (PLOS Biology, 2025)
# The list shows a part of the results.
# Tested on: T1, CTL2-GFP (C. trachomatis L2/434/Bu, GFP-expressing)
# T1 construct: L2/434/Bu, GFP-expressing
# Design: species or system HeLa; Intracellular C. trachomatis growth in HeLa cells, bulk GFP fluorescence relative to DMSO
# Conditions: bulk GFP, single well; 28.5 h, 10 µM; inhibitor
row,SMILES,% of control remaining [%]
1,CCCCCC/C=C/c1cnc2nc(NC(=O)NCC)ccc2c1 [CBK061880],92.6632
2,O=C(O)CCN1C(=O)c2ccc(Oc3ccc([N+](=O)[O-])cc3)cc2C1=O [CBK263357],100
3,N/C(=N\c1nonc1N)NC(=O)c1ccccc1 [CBK006756],109.395
4,COc1ccc(C(=O)O)cc1NC(=S)NC(=O)c1ccc(-c2ccccc2)cc1 [CBK265064],127.598
5,CCCC/C=C/c1cnc(N)c(-c2ccc(O)cc2)n1 [CBK064068],160.994
6,CC(C)[C@H]1CN(Cc2ccco2)CCN1C(=O)NCc1ccccc1 [CBK284274],98.5221
7,Cn1cc(C2CNCCN2C(=O)c2csc3ccccc23)cn1 (centres unmarked) [CBK304324C],126.774
8,CCCNC(=O)C[C@@H]1CCN(S(=O)(=O)c2c(C)noc2C)C[C@@H]1CC [CBK288780],126.601
9,CC(C)Oc1cc(Br)cc(C(=O)N2CCC(C(=O)O)C2)c1 (centres unmarked) [CBK304268C],132.382
10,COc1ccc(OC(=O)c2ccc3ncccc3c2)cc1 [CBK083572],173.634
11,CCN(NC(=O)c1cc2cccc(OC)c2o1)c1ccc(C)cc1 [CBK161484],109.318
12,Cc1onc(-c2c(Cl)cccc2Cl)c1C(=O)N(C)C [CBK160437],128.727
13,Nc1nonc1NC(=O)c1ccccc1Cl [CBK019040],105.535
14,O=C(NC1CCCCC1)c1cc(Br)cnc1NCc1cccnc1 [CBK076439],108.285
15,O=C1C2CCCCN2C(=O)N1c1cccnc1 (centres unmarked) [CBK162359],113.219
16,Nc1nccnc1C(=O)Oc1ccccc1 [CBK090311],158.062
17,CC1CCCCC1NC(=O)Cn1c(=O)n(C(C)C)c2ncccc21 (centres unmarked) [CBK283697],160.48
18,O=C1N(CN2CCN(c3cccc(C(F)(F)F)c3)CC2)c2ccccc2C12OCCCO2 [CBK294461],111.337
19,CC1(c2cc(F)ccc2F)NC(=O)N(c2ccncc2)C1=O (centres unmarked) [CBK291253],150.22
20,Cc1ccc(NC(=O)c2cnc3n(c2=O)CCS3)cc1 [CBK287376],129.199
21,CC(C)N1CCC[C@H]1c1nc(-c2ccc(-c3cncnc3)nc2)no1 [CBK288892],109.198
22,Fc1ccc(-c2cncc(NCc3ccco3)n2)c(F)c1 [CBK065834],164.239
23,Cc1ccc(/C=N/n2c(S)nnc2COc2ccccc2)o1 [CBK265244],111.246
24,Cc1nnc2sc(-c3cccc(NC(=S)NC(=O)c4cc5ccccc5o4)c3)nn12 [CBK267282],123.538
25,CCC(CO)Nc1cncc(-c2ccc(C(N)=O)cc2)n1 (centres unmarked) [CBK065577],99.4555
26,S=c1[nH]nc(-c2ccc(Cl)cc2)n1-c1cccnc1 [CBK086427],110.796
27,COc1ccc(Cl)cc1NC(=O)C(=O)NCc1ccccn1 [CBK263837],100

row,SMILES,% of control remaining [%]
1,CCCCn1c(SCc2nc(-c3cccc(Cl)c3)no2)n[nH]c1=O [CBK295356],123.907
2,CCN1CCN(C(=O)Cc2ccc(OC)cc2)C(Cc2ccc(-c3ccncc3)cc2)C1=O (centres unmarked) [CBK285804],99.5027
3,CCC(CC)C(=O)Nc1ccc([C@@H](O)[C@H]2COCC(=O)N2Cc2ccc(OC)cc2)cc1 [CBK289677],125.735
4,COc1ccc(Cn2c(=O)n(C(=O)c3cccc(S(C)(=O)=O)c3)c3ccccc32)cc1 [CBK106547],133.772
5,CCC(C)(C)c1ccc(S(=O)(=O)N2CCN(CCCOC3CCCCO3)CC2)cc1 (centres unmarked) [CBK063135],100.617
6,CN(C)C(=O)CCNC(=O)c1ccc2c(c1)nc(N1CC[C@H](O)C1)n2C [CBK306671],136.408
7,CCc1nn(CC(=O)NC2CCC2)c(=O)c2cc3sc(C)cc3n12 [CBK284142],124.476
8,CC(=O)c1ccc(C(=O)Nc2ccc3nc(C)sc3c2)cc1 [CBK287310],166.698
9,O=C(Cc1ccc(Cl)cc1)NC(=S)Nc1ccccc1[N+](=O)[O-] [CBK263909],115.736
10,Cc1nn(C)c(C)c1CN(C(=O)c1ccc(C)n(C)c1=O)C1CC1 [CBK281450],81.6834
11,COc1cccc(C2Nc3ccc4ccccc4c3C3=C2C(=O)CC(C)(C)C3)c1OCC(=O)O (centres unmarked) [CBK263045],98.2648
12,COc1ccc([C@@]23CC[C@@H](NC(=O)Nc4ccc(OC(F)(F)F)cc4)C[C@@H]2N(C)CC3)cc1OC [CBK036455T],97.1315
13,C=CCn1c(Cc2csc(NC(=O)c3ccc([N+](=O)[O-])cc3Cl)n2)n[nH]c1=S [CBK295291],151.758
14,CCn1cncc1CN1CCC(O)(c2ccccc2F)CC1 [CBK282817],105.346
15,CCn1c(C)cc(C(=O)N2CCN(c3nccc(OC)n3)CC2)c1C [CBK305791],104.394
16,C(=N\N1CCN(Cc2cccc3ccccc23)CC1)/c1ccncc1 [CBK263003],123.901
17,CCN(CC)C(=O)C1CCCN1C(=O)c1ccnc(N(C)C)c1 (centres unmarked) [CBK305086],147.406
18,O=C(Cn1c(NCCCO)nc2ccccc21)c1ccc(Cl)c(Cl)c1 [CBK262905B],109.803
19,Cc1ccc2c(c1)C(=O)CC1(CCN(C(=O)C3CCCC3)CC1)O2 [CBK283718],144.631
20,CC(C)CNC(=S)N[C@H]1CO[C@H]2[C@@H]1OC[C@@H]2Nc1nccc(C(C)(C)C)n1 [CBK289523],117.027
21,CC(C)c1ncc(CN2CCC(CC(=O)N3CCN(c4ccccc4)CC3)CC2)cn1 [CBK286048],107.601
22,CSCCC(=O)N1CCC(Cn2cncn2)(C2CCCCC2)CC1 [CBK136799],103.748
23,COCCOCCOc1ccccc1OCCOCCOC [CBK009636],150.709
24,CCN1CCC(Oc2nccnc2OCc2cc(C)on2)CC1 [CBK082962T],108.276
25,CC(Oc1ccc(-c2ccccc2)cc1)C(=O)Nc1ccc2c(c1)OCCO2 (centres unmarked) [CBK268002],131.458
26,Cc1ccc(Cn2c(OCCN(C)C)nc3c2c(=O)n(C)c(=O)n3C)cc1 [CBK134241],102.095
27,CC(C)CNC(=O)c1cc(C2CN(Cc3c[nH]nc3C(C)(C)C)CCO2)nc2ccccc12 (centres unmarked) [CBK285925],79.1602

# Six records picked at random from those above:
row,SMILES,% of control remaining [%]
3,CCC(CC)C(=O)Nc1ccc([C@@H](O)[C@H]2COCC(=O)N2Cc2ccc(OC)cc2)cc1 [CBK289677],125.735
24,CCN1CCC(Oc2nccnc2OCc2cc(C)on2)CC1 [CBK082962T],108.276
7,CCc1nn(CC(=O)NC2CCC2)c(=O)c2cc3sc(C)cc3n12 [CBK284142],124.476
17,CCN(CC)C(=O)C1CCCN1C(=O)c1ccnc(N(C)C)c1 (centres unmarked) [CBK305086],147.406
2,CCN1CCN(C(=O)Cc2ccc(OC)cc2)C(Cc2ccc(-c3ccncc3)cc2)C1=O (centres unmarked) [CBK285804],99.5027
9,O=C(Cc1ccc(Cl)cc1)NC(=S)Nc1ccccc1[N+](=O)[O-] [CBK263909],115.736

# Next part.

row,SMILES,% of control remaining [%]
1,FC(F)(F)c1cccc(SCCc2ccccn2)n1 [CBK103719],115.797
2,CCOc1ccc(S(=O)(=O)Nc2cnccn2)cc1 [CBK270313],97.4085
3,O=C1NCCN1CCOc1nccnc1-c1ccc(F)cc1 [CBK106898],123.616
4,O=C(O)CCCN1C(=O)/C(=C/c2ccc(O)c(O)c2)SC1=S [CBK262852],123.67
5,COc1ccc(CNc2ccc(N3CCOCC3)c(C(=O)O)c2)cc1OC [CBK269915],110.376
6,COc1ccccc1-c1cn2ccnc2c(NCCc2ccccn2)n1 [CBK037980],168.489
7,CCN(CC(=O)O)S(=O)(=O)c1cc(C)ccc1OC [CBK268694],125.231
8,Cc1cc(-c2cn(C)nc2C2CCCN2C(=O)CC(C)(C)C)on1 (centres unmarked) [CBK283453],126.106
9,C=CCN1C(=O)C2(CC(=O)N(CCOc3ccccc3)C2=O)c2ccccc21 (centres unmarked) [CBK075159],124.386
10,CCc1nnc(NS(=O)(=O)c2ccc(N/C=C\C(=O)c3ccc4ccccc4c3)cc2)s1 [CBK263385],19.1838
11,CN1C(=O)COc2ccccc2CCCC[C@@H]2[C@H]1CCCN2CCO [CBK292112],139.275
12,COc1ccc(N)cc1OCc1cn2ccccc2n1 [CBK295609],154.088
13,CCOC(=O)CNS(=O)(=O)c1cccc(Cl)c1C [CBK004702],184.156
14,CCc1noc(CN2CCN(c3ccc(C(=O)OC)cc3)CC2C)n1 (centres unmarked) [CBK306154],133.968
15,O=S(=O)(c1ccc(F)cc1F)N1CCN(Cc2ccc3c(c2)OCO3)CC1 [CBK074744],108.512
16,O=C(Nc1sc2c(c1C(=O)NCc1cccnc1)CCC2)c1ccco1 [CBK269599],147.913
17,CC1CCN(S(=O)(=O)c2ccc(C(=O)N3CCC(C(=O)O)CC3)cc2)CC1 [CBK297097],107.14
18,O=C(O)c1ccc(NC2=NS(=O)(=O)c3ccccc32)cc1 [CBK287084],133.596
19,OC1CCN(Cc2c([C@H]3CCCO3)[nH]c3ncccc23)CC1 [CBK286301],85.8777
20,CCC(Cc1ccccc1C)c1cc(O)c(C(c2ccccc2)C2CC2)c(=O)o1 (centres unmarked) [CBK016783],88.193
21,CN(C)S(=O)(=O)N(CC(=O)O)c1ccccc1 [CBK267660],99.3796
22,CNc1nc(NCCCn2c(C)cccc2=O)cc(C2CCOC2)n1 (centres unmarked) [CBK306875],87.3991
23,COc1ccccc1CN(C)CCc1ccccn1 [CBK261741G],100
24,COc1ccc(-n2cc(-c3ccncc3)nn2)cc1OC [CBK113106],143.605
25,Cc1ccc(-c2noc(CSc3nnc(CCc4ccccc4)n3-c3ccccc3)n2)cc1 [CBK268493],104.517
26,CC(NC(=O)C1CCN(CCCN(C)S(C)(=O)=O)CC1)c1cccc2ccccc12 (centres unmarked) [CBK148651],82.1096
